Results deposited as PubChem BioAssay AID1159578 (Peter MacCallum Cancer Centre, 2015).
In all, the deposit lists about 18,000 reagents; shown is an unselected part. About 1,030 of all reagents (5.7%) count as active. 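Inactive calls also include pools with fewer than 3300 nuclei, whose migration was not assessed.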 Raw values are not corrected between plates. The numbers tell different reagents against one gene apart. Further read-outs or replicates are left out here.

- Purpose: 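siRNA pools altering how lymphatic endothelial cells close a scratch wound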 (primary screen)
- System: human lymphatic endothelial cells
- Reagents: siRNA pool against human genes, 40 nM
- Time to read-out: 48 h after transfection
- Detection: 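High-content imaging of dye-stained cells in a scratch assay measures filled wound area and nuclei per well; duplicate means given as ratio to mock and robust z-score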
- Reading the numbers: migration robust z-score: higher = faster migration into the scratch; nuclei per well: higher = more cells in the well
- Rule for the call: 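Migration changed when robust z exceeds 2 or falls below -2 and mean nuclei number is at least 3300; otherwise not called changed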
- Calls: active = migration changed; inactive = no migration change, or too few cells

The opening 2 records as a preview:
TRNT1 → migration robust z-score: 0.36; migration class with cell-count check: migration z between -2 and 2; enough cells; nuclei per well, duplicate mean: 4626; outcome: inactive
SEMG1 → migration robust z-score: -0.12; migration class with cell-count check: migration z between -2 and 2; enough cells; nuclei per well, duplicate mean: 5719; outcome: inactive

The listing, from the start:
TRNT1 → migration robust z-score: 0.36; migration class with cell-count check: migration z between -2 and 2; enough cells; nuclei per well, duplicate mean: 4626; outcome: inactive
SEMG1 → migration robust z-score: -0.12; migration class with cell-count check: migration z between -2 and 2; enough cells; nuclei per well, duplicate mean: 5719; outcome: inactive
RPA4 → migration robust z-score: 1.44; migration class with cell-count check: migration z between -2 and 2; enough cells; nuclei per well, duplicate mean: 5670; outcome: inactive
SPNS1 → migration robust z-score: -0.44; migration class with cell-count check: migration z between -2 and 2; enough cells; nuclei per well, duplicate mean: 4690; outcome: inactive
CAMK2B → migration robust z-score: -6.3; migration class with cell-count check: under 3300 nuclei; migration not judged; nuclei per well, duplicate mean: 2916; outcome: inactive
ABL2 → migration robust z-score: -2.54; migration class with cell-count check: under 3300 nuclei; migration not judged; nuclei per well, duplicate mean: 3192; outcome: inactive
COMMD9 #1 → migration robust z-score: -1.62; migration class with cell-count check: migration z between -2 and 2; enough cells; nuclei per well, duplicate mean: 3710; outcome: inactive
COMMD9 #2 → migration robust z-score: 0.02; migration class with cell-count check: migration z between -2 and 2; enough cells; nuclei per well, duplicate mean: 4906; outcome: inactive
NUCB2 → migration robust z-score: -0.64; migration class with cell-count check: migration z between -2 and 2; enough cells; nuclei per well, duplicate mean: 3904; outcome: inactive
ASIC4 → migration robust z-score: -0.67; migration class with cell-count check: migration z between -2 and 2; enough cells; nuclei per well, duplicate mean: 5204; outcome: inactive
MAPK6 → migration robust z-score: -1.5; migration class with cell-count check: migration z between -2 and 2; enough cells; nuclei per well, duplicate mean: 3826; outcome: inactive
DPM3 → migration robust z-score: -0.54; migration class with cell-count check: migration z between -2 and 2; enough cells; nuclei per well, duplicate mean: 4885; outcome: inactive
WDR83 → migration robust z-score: -4.08; migration class with cell-count check: under 3300 nuclei; migration not judged; nuclei per well, duplicate mean: 2658; outcome: inactive
USP20 → migration robust z-score: -0.34; migration class with cell-count check: migration z between -2 and 2; enough cells; nuclei per well, duplicate mean: 4684; outcome: inactive
